No constants are given. Whether binding was seen depends on the method and setting. Binding seen in cells or lysates may run through a third protein. Some entries that bind do so weakly or less than the wild type. For part of these data: Sequences can lack the tags named with a protein. Values belong to the substance of their own block, whether it stands above or below them.
How the values were obtained:
[1] = biological target: Procaspase 8, endogenous, in human cancer cell lysates (human) (UniProt Q14790); assay: co-immunoprecipitation (figure legend)
[2] = biological target: Procaspase 8, endogenous, in human cancer cell lysates (human) (UniProt Q14790); assay: co-immunoprecipitation from MIP/5FU and MiaPaca/CPT cell fractions
[3] = biological target: T1, SPARC, endogenous, in human cell lysates (HUVEC, HCT116) (human) (UniProt P09486); assay: co-immunoprecipitation, HCT116 membrane fraction
T1 sequence (looked up): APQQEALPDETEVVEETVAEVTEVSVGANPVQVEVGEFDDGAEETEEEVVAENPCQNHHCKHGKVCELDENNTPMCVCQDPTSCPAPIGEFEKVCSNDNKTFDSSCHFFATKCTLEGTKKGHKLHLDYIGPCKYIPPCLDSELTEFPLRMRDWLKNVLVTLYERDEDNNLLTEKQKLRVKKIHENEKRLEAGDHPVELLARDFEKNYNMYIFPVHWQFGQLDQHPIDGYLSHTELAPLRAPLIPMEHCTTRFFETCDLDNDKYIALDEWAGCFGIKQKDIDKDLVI

Protein sequences, listed by entry. Tags and fused reporters are not part of them.
UniProt Q14790: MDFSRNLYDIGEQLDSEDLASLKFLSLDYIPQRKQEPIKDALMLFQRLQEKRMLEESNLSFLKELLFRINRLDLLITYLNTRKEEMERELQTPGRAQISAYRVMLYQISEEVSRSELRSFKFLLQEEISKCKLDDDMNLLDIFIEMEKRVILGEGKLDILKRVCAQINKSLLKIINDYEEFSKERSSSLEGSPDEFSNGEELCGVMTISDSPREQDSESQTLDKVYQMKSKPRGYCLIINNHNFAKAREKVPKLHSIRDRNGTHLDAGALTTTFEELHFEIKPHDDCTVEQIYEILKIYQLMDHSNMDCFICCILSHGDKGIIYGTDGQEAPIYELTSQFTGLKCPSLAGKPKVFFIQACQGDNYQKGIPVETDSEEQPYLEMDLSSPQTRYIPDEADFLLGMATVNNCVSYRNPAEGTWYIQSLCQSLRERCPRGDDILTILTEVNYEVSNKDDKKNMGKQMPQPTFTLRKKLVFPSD
UniProt P10415: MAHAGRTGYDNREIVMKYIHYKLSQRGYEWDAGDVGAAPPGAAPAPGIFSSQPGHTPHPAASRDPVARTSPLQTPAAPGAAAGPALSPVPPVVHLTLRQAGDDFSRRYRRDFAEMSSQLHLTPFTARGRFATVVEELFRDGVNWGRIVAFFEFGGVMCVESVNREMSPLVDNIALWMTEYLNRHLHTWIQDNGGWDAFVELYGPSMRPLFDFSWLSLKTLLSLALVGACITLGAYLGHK

[4] = biological target: T2, SPARC (Secreted Protein, Acidic, Rich in Cysteines), His-tagged, stably expressed in MIP101 cells (MIP/SP) (human) (UniProt P09486); assay: reciprocal co-immunoprecipitation, MIP/SP membrane fraction
T2 sequence (looked up): T1 sequence (looked up)

[5] = biological target: T2, SPARC (Secreted Protein, Acidic, Rich in Cysteines), His-tagged, stably expressed in MIP101 cells (MIP/SP) (human); assay: co-immunoprecipitation, membrane fraction (figure legend)
[6] = biological target: T1, SPARC, endogenous, in human cell lysates (HUVEC, HCT116) (human); assay: co-immunoprecipitation, membrane fraction (figure legend; FIG. 5B is HCT116)
[7] = biological target: T1, SPARC, endogenous, in human cell lysates (HUVEC, HCT116) (human); assay: reciprocal co-immunoprecipitation, HCT116 membrane fraction
[8] = biological target: T2, SPARC (Secreted Protein, Acidic, Rich in Cysteines), His-tagged, stably expressed in MIP101 cells (MIP/SP) (human); assay: co-immunoprecipitation
[9] = biological target: Bcl-2, endogenous, in human cancer cell lysates (human) (UniProt P10415); assay: reciprocal co-immunoprecipitation from transfected MIP/5FU and MiaPaCa/CPT cells

binding [1]: binds
binding [2]: binds
Substance: Bcl-2, endogenous, in human cancer cell lysates (from UniProt P10415 1-239)

binding [3]: binds
binding [4]: binds
binding [5]: binds
binding [6]: binds
binding [7]: binds
binding [8]: binds
Substance: Procaspase 8, endogenous, in human cancer cell lysates (from UniProt Q14790 1-479) (enzyme)

binding [9]: binds
Substance: wild type procaspase 8 expressed from pcDNA3.1/myc-His (from UniProt Q14790 1-479) (enzyme)

— US20140363377A1
